Data: US20220249684A1
Numbering of substitutions follows the chain as printed. These are yes or no findings as the source states them, for the method shown. Some results given as binding are weak or reduced against the parent protein; the word gives no strength. Blank lines part the entries; values can stand above or below the binder they belong to.

Columns and labels:
[1] = molecular target: T1, Lrig-1 protein stably expressed on the surface of L cells (human) (UniProt Q96JA1); experiment: FACS on L cells stably expressing Lrig-1, eFluor 670 anti-mouse secondary antibody
T1 sequence: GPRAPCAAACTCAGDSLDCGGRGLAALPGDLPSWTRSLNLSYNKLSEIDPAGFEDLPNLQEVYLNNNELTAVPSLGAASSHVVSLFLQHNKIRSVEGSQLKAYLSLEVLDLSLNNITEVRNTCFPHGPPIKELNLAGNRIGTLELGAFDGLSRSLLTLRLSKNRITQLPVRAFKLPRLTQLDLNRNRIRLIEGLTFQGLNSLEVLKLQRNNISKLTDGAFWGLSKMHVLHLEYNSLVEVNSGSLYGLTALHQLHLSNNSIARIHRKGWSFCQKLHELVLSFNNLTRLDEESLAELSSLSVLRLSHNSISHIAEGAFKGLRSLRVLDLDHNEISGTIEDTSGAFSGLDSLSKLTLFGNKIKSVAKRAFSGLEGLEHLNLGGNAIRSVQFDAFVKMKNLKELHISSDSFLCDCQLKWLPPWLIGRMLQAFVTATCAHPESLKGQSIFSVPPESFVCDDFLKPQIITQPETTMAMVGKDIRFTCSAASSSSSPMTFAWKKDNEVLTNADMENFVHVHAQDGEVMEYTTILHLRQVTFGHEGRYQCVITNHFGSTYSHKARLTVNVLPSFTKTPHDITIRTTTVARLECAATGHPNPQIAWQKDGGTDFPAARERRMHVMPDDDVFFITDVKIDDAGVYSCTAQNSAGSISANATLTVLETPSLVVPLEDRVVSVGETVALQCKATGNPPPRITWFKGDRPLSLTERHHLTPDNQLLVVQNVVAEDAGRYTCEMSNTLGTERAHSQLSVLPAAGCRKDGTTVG

[2] = molecular target: T2, Lrig-1 protein as a peptide microarray (1,091 overlapping 15-amino-acid peptides) (UniProt Q96JA1); experiment: Lrig-1 peptide microarray, antibody at 1, 10 and 100 ug/ml, fluorescent secondary antibody
T2 sequence (looked up): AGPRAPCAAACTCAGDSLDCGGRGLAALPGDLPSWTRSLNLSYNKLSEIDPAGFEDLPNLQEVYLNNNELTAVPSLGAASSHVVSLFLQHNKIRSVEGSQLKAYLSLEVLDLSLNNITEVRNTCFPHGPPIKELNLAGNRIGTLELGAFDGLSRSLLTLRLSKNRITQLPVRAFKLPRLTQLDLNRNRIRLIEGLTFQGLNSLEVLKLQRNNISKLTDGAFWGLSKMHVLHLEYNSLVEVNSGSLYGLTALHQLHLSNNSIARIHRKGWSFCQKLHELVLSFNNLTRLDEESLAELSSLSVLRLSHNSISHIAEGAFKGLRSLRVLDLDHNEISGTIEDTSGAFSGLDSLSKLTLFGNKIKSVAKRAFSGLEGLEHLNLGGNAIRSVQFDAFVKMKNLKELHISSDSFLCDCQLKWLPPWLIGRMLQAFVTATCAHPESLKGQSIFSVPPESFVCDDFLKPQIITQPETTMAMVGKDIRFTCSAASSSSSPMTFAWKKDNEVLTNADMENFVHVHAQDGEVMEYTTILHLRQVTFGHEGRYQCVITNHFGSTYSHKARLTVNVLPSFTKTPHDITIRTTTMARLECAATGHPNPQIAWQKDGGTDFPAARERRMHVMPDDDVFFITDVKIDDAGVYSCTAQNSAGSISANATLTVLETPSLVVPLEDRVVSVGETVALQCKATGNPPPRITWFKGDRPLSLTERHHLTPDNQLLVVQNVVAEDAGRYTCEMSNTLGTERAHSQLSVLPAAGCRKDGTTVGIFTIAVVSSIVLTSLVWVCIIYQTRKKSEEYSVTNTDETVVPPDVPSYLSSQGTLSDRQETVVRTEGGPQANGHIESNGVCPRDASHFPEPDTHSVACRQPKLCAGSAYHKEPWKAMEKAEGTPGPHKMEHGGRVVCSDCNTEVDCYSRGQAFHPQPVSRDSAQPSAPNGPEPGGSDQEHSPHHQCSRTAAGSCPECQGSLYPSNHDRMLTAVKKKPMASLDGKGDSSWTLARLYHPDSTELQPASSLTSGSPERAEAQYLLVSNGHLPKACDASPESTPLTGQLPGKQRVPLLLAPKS

- binding [1]: binds
B1: GTC110-02 clone (monoclonal antibody of Preparation Example 2) (antibody, mouse IgG2a, V domains shown)
VH: EVQLLESGGGLVQPGGSLRLSCAASGFTFSDYYMSWVRQAPGKGLEWVSGISHDSGSKYYADSVKGRFTISRDNSKNTLYLQMNSLRAEDTAVYYCARHWTTFDYWGQGTLVTVSS
VL: QSVLTQPPSASGTPGQRVTISCSGSSSNIGSNNVTWYQQLPGTAPKLLIYANSNRPSGVPDRFSGSKSGTSASLAISGLRSEDEADYYCGAWDYSLSAYVFGGGTKLTVLR

- binding [1]: binds
- binding [2]: binds
B2: GTC110-04 clone (monoclonal antibody of Preparation Example 4) (antibody, mouse IgG2a, V domains shown)
VH: EVQLLESGGGLVQPGGSLRLSCAASGFTFSNYAMSWVRQAPGKGLEWVSVISHGGGSTYYADSVKGRFTISRDNSKNTLYLQMNSLRAEDTAVYYCARVISNCHLGVCYYSNGMDVWGQGTLVTVSS
VL: B1 VL with S31N, N33D, T35Y, A51S, N52D, N54Q, A91T, A98G

- binding [1]: binds
B3: GTC110-03 clone (monoclonal antibody of Preparation Example 3) (antibody, mouse IgG2a, V domains shown)
VH: EVQLLESGGGLVQPGGSLRLSCAASGFTFSNYAMSWVRQAPGKGLEWVSAIYPGGGSIYYADSVKGRFTISRDNSKNTLYLQMNSLRAEDTAVYYCARDILPCPWGRCYYDYAMDVWGQGTLVTVSS
VL: B1 VL with G24D, N33T, T35S, N52D, S53N, A91T, A98G
